According to PubChem BioAssay AID1259415 (National Center for Advancing Translational Sciences (NCATS), 2018):
“And” between values parts separate entries of the source, which are not always exact repeats. Equal entries are not always repeated. Screen size: about 410,000 compounds; about 18,000 (4.4%) were called active. Inconclusive means that the source gave no clear call. Such entries were picked first, then a sample of the others. Cut-off read from the data, not from the text of the source: active = activity change below about -60%; inconclusive = no clear call, values can overlap the other calls; inactive = above about -39%.
% is set by controls: 0 for no effect and ±100 for the full control effect.

Test: qHTS Assay for inhibitors of the human cytomegalovirus (HCMV)
Details: HFF cells, HCMV-luciferase reporter, 72 h; at 57.5 µM; stronger effect = lower value
Method in brief: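 HFF cells seeded 16 h at 37C, treated with compounds, infected with luciferase-reporter HCMV at MOI 1 PFU/cell; luciferase read at 72 h post infection, normalized to buffer-only and Salinomycin controls.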
In the case of CCN(CC(=O)NNC(=O)c1ccccc1)Cc1ccc(OC)c(F)c1, the activity change, negative = inhibition was inactive: 23.6%. In the case of CCOCCc1c(O)nc(SCCOc2ccc(C)c(C)c2)[nH]c1=O, the activity change, negative = inhibition was inconclusive: -42.5%. With Cc1ccc(NC(=O)/C=C/c2ccco2)nc1 the activity change, negative = inhibition was active: -63.1%. For CCOc1ccc(Nc2oc(-c3ccc(COc4ccc(OC)cc4)o3)nc2C#N)cc1, the activity change, negative = inhibition was active: -80.9%. With O=C(Nc1ccc2c(c1)OCO2)N1CCN(c2ccccc2Cl)CC1 the activity change, negative = inhibition was inactive: -21.1%. In the case of O=C(CSc1ccc([N+](=O)[O-])cc1)Nc1ccccc1N1CCOCC1, the activity change, negative = inhibition was inconclusive: -44.3%. For Cc1nnc(N/N=C/c2cc([N+](=O)[O-])c(N3CCC(C)CC3)cc2N2CCC(C)CC2)n1N, the activity change, negative = inhibition was inconclusive: -52.4%. With O=C(Nc1cccc(Cl)c1)Nc1nc(-c2ccc(Cl)cc2)cs1 the activity change, negative = inhibition was inconclusive: -46.7%. With Cc1ccc(CCNS(=O)(=O)c2c(C)nc3sccn3c2=O)cc1 the activity change, negative = inhibition was inactive: 8.7%. In the case of COc1ccc(NC(=O)Cn2c(=O)n(-c3cc(C)cc(C)c3)c(=O)c3oc4ccccc4c32)cc1OC, the activity change, negative = inhibition was active: -83.5%. With CC(=O)NC(Cc1ccccc1)C(=O)N1CCN(C(=S)NCC(C)C)CC1 (stereo unspecified) the activity change, negative = inhibition was inconclusive: -52.5%. For COc1cc2c(c3ccccc13)CCCC2=O, the activity change, negative = inhibition was inactive: -26.5%. In the case of CCC1CC(/C(C)=N/NC(N)=O)OC1=O (stereo unspecified), the activity change, negative = inhibition was inactive: 3.84%. With CCc1cccc(NS(=O)(=O)c2c(C)nc3scc(C)n3c2=O)c1 the activity change, negative = inhibition was inconclusive: -57.6%. With COc1ccc(CC2(CO)CCN(CC3=Cc4cc(Cl)ccc4OC3)CC2)cc1 the activity change, negative = inhibition was inconclusive: -59%. With Cc1ccc(S(=O)(=O)N2CCCOC2CNC(=O)C(=O)NC2CCCCC2)cc1 (stereo unspecified) the activity change, negative = inhibition was inconclusive: -56.3%. In the case of Cc1ccc(S(=O)(=O)NCc2ccc(C(=O)N3CCc4ccccc4C3)cc2)cc1, the activity change, negative = inhibition was inconclusive: -45.3%. For Cc1onc(-c2ccccc2)c1C(=O)OCC(=O)NC(C)c1ccc(Cl)cc1 (stereo unspecified), the activity change, negative = inhibition was inactive: -16.2%. For CCCS(=O)(=O)c1nc(S(=O)(=O)c2ccc(C)cc2)c(N2CCN(C)CC2)s1, the activity change, negative = inhibition was inconclusive: -51.3%. With CCCCNc1c(-c2ccc(OC)c(SC(C)CC)c2)nc2cnccn12 (stereo unspecified) the activity change, negative = inhibition was inactive: -19.9%. In the case of Cc1nc(Nc2ccc(O)cc2)c2c3c(sc2n1)CCCC3, the activity change, negative = inhibition was active: -75.9%. For CCN(CC)CCNc1nc2cc(OC)c(OC)cc2c2nc(-c3ccccc3)nn12, the activity change, negative = inhibition was inactive: -12.9%. With Cc1cc(C)n(-c2ccc(C(=O)Nc3cccc(S(=O)(=O)N(C)C)c3)cc2)n1 the activity change, negative = inhibition was active: -95.6%. With CCC(Cn1nnc2ccccc2c1=O)NC(=O)Nc1cc(C)cc(C)c1 (stereo unspecified) the activity change, negative = inhibition was inactive: 106%. In the case of O=C(NC1CCCC1)C1c2ccccc2OCC(=O)N1C1CC1 (stereo unspecified), the activity change, negative = inhibition was inactive: 19.5%. With CCOc1ccc(CNC(=O)c2cccc(NC(=O)N3CCSc4ncccc43)c2)cc1OC the activity change, negative = inhibition was inconclusive: 0%. In the case of CN(C)c1ccc(P(=O)(OCc2ccccc2)C(O)c2ccc(Cl)cc2)cc1 (stereo unspecified), the activity change, negative = inhibition was inactive: 32.5%. For CC(=O)N1CCCc2cc(S(=O)(=O)N3CCCC(C(=O)N4CCN(c5cccc(Cl)c5)CC4)C3)ccc21 (stereo unspecified), the activity change, negative = inhibition was active: -72.9% and active: -95.8%. With O=C(CSc1nccn(-c2ccc(Br)cc2)c1=O)NCc1ccccc1 the activity change, negative = inhibition was inconclusive: -45.4%. With Cc1ccc(N/N=C2\COC(C)(C)CC2=O)cc1 the activity change, negative = inhibition was inconclusive: -48.9%. For Cc1c(NS(=O)(=O)c2cccc(C(=O)Nc3cccc(F)c3)c2)c(=O)n(-c2ccccc2)n1C, the activity change, negative = inhibition was inactive: -5.23%. With CN(C)CC(=O)N1c2ccccc2Sc2ccc(Cl)cc21 the activity change, negative = inhibition was active: -63.7%. For Cc1cc(OCCCCOc2ccc(C#N)cc2)ccc1[N+](=O)[O-], the activity change, negative = inhibition was inconclusive: -48.5%. For CC(=NNC(=S)N1CCC1)c1ccccn1, the activity change, negative = inhibition was active: -101%. In the case of O=C(NCCc1ccccc1)c1ccc2c(c1)N(Cc1ccc(Cl)cc1)C(=O)CS2, the activity change, negative = inhibition was inactive: -11.3%. For CCn1nc(C)cc1C(=O)N1CCc2c([nH]c3ccccc23)C1c1cc(F)ccc1F (stereo unspecified), the activity change, negative = inhibition was inactive: 48.8%. For COc1ccc(-c2coc3c(C(=O)NCCN4CCOCC4)cccc23)c(C)c1, the activity change, negative = inhibition was inactive: -31.9%. For C=CCn1c2ccccc2c(=O)c2cc(C#Cc3ccccn3)ccc21, the activity change, negative = inhibition was inconclusive: -43.9%. In the case of COc1ccc(-c2sc3ccc(OC)cc3c2-c2ccc(O)cc2)cc1, the activity change, negative = inhibition was inconclusive: -48.2%. For COc1cccc(NC(=O)CSc2nc3ccccc3nc2N2CCCC2)c1, the activity change, negative = inhibition was inconclusive: -51.9%. With COc1ccc(N2C3=[N+](CCCC3)CC2(C)O)cc1 (stereo unspecified) the activity change, negative = inhibition was active: -77.9%. In the case of CN(CCc1ccccc1)C(=O)c1cccc(NC(=O)Cc2cccc(NC(=O)C3CCCN(C(=O)c4ccccc4)C3)c2)c1 (stereo unspecified), the activity change, negative = inhibition was inconclusive: -41.7%. With CSc1ccc(CN(C)C(=O)c2cccc(S(=O)(=O)NCc3ccccc3)c2)cc1 the activity change, negative = inhibition was inconclusive: -41.1%. For COc1ccc(-n2c(=O)c3c4c(sc3n3c(=S)[nH]nc23)CCCC4)cc1, the activity change, negative = inhibition was inconclusive: -44.3%. For CCc1ccc(NC(=S)N(CCCN2CCOCC2)Cc2ccco2)cc1, the activity change, negative = inhibition was inconclusive: -42.3%. With CCOc1ccc(-c2nc(N)nc(C)c2-c2ccc(OC)c(OC)c2)c(O)c1 the activity change, negative = inhibition was inconclusive: -54.7%. With COc1cc(C)nc(N(Cc2ccccc2)S(=O)(=O)c2ccc(C)cc2)n1 the activity change, negative = inhibition was inconclusive: -56.1%. For O=C(c1ccco1)N1CCN(C(=O)c2ccc(-c3ccc([N+](=O)[O-])cc3)o2)CC1, the activity change, negative = inhibition was inactive: -13.9%. In the case of CCN(CC)S(=O)(=O)c1ccc(C(=O)Nc2cc(C)cc(C)c2)cc1, the activity change, negative = inhibition was inactive: -38.7%. For COC(=O)c1ccc2c(=O)n(CC3CCCO3)c(SCC(=O)Nc3ccc(OC)cc3OC)nc2c1 (stereo unspecified), the activity change, negative = inhibition was inactive: 20.5%. For COc1cccc(-c2csc(Nc3ccc(Oc4ccccc4)cc3)n2)c1, the activity change, negative = inhibition was inconclusive: -40.2%. For Cc1occc1-c1nnc(SCC(=O)c2ccc(F)cc2)o1, the activity change, negative = inhibition was inactive: 12%. In the case of Cc1cn([C@H]2C[C@H](O)[C@@H](CNCc3ccc(Oc4cc(-n5cccn5)ncn4)cc3)O2)c(=O)[nH]c1=O, the activity change, negative = inhibition was inactive: 8.02%. In the case of CCOc1ccc(NC(=O)CN(C)C(=O)c2cccnc2Sc2ccc(Cl)cc2)cc1OCC, the activity change, negative = inhibition was inconclusive: -45.6%. With O=C(NCc1ccc2c(c1)OCO2)C(=O)Nc1ccccc1 the activity change, negative = inhibition was inactive: 55.3%. For O=C(Cn1c(=S)[nH]c2ccccc2c1=O)NCCc1ccccc1, the activity change, negative = inhibition was inactive: 202%. With Cc1c([N+](=O)[O-])c(C(=O)Sc2ccc(Br)cc2)nn1C the activity change, negative = inhibition was inconclusive: -46.5%. For c1cc2cc(CNc3nc(NCC4CC4)nc4ccsc34)ccc2o1, the activity change, negative = inhibition was active: -74.4%. In the case of COc1ccc(CCNC(=O)COc2ncnc3ccccc23)cc1OC, the activity change, negative = inhibition was inconclusive: -47.9%. For COc1ccc(N(C(=O)Cc2cccs2)C2C=CS(=O)(=O)C2)cc1 (stereo unspecified), the activity change, negative = inhibition was inconclusive: -48.1%. For CC1CCCC(C)N1C(=O)COC(=O)c1cccnc1Cl (stereo unspecified), the activity change, negative = inhibition was inactive: -17.1%. With Cc1nn(Cc2ccc(Cl)cc2Cl)c(C)c1NC(=O)CCl the activity change, negative = inhibition was inconclusive: -48.5%. For O=C(Nc1ccc(F)cc1Cl)C1=COCCO1, the activity change, negative = inhibition was inactive: -17.9%. For O=C(Nc1cccc(S(=O)(=O)N2CCCCC2)c1)c1ccc2c(=O)n3c(nc2c1)CCCCC3, the activity change, negative = inhibition was active: -88.3%. In the case of O=C(CCl)Nc1cccc(Oc2cnccn2)c1, the activity change, negative = inhibition was inconclusive: -50.1%. For O=C(CN1C(=O)/C(=C2\SC(=S)N(C3CCS(=O)(=O)C3)C2=O)c2ccccc21)Nc1ccc(F)cc1 (stereo unspecified), the activity change, negative = inhibition was inconclusive: -50%. In the case of CCCCNC(=O)C1CCCN(S(=O)(=O)c2c(C)noc2/C=C/c2cccs2)C1 (stereo unspecified), the activity change, negative = inhibition was inconclusive: -56.5%. In the case of CN(C)S(=O)(=O)c1cccc(NC(=O)COc2cccc(C#N)c2)c1, the activity change, negative = inhibition was inconclusive: -45.4%. For CCCCN(CCCC)S(=O)(=O)c1ccc(C(=O)Nc2nnc(CSC)o2)cc1, the activity change, negative = inhibition was inconclusive: -41.9%. For Cc1ccc(N/C(CSC(N)=O)=N\S(=O)(=O)c2ccc(C)cc2)cc1, the activity change, negative = inhibition was inactive: -4.14%. With CCN(CC(=O)Nc1cc(C)nn1-c1nc(C)cc(C)n1)Cc1ccccc1 the activity change, negative = inhibition was inconclusive: -44%. In the case of CCCC(CCC(=O)Nc1nccs1)C(=O)O (stereo unspecified), the activity change, negative = inhibition was inactive: 3.22%. In the case of Cc1cccc(-n2c(SCN3C(=O)c4ccccc4C3=O)nc3ccccc3c2=O)c1, the activity change, negative = inhibition was inconclusive: -44.1%. For CCOc1cc(/C=C2\CCC/C(=C\c3cc(Cl)c(O)c(OCC)c3)C2=O)cc(Cl)c1O, the activity change, negative = inhibition was active: -98.2%. In the case of COc1cc2c(cc1OC)CN(C(=O)c1ccc(Cl)c(S(=O)(=O)N3CCCC3)c1)CC2, the activity change, negative = inhibition was inconclusive: -44%. For Cc1ccc(-c2cc(=O)[nH]c(NCc3ccccc3)n2)cc1, the activity change, negative = inhibition was inconclusive: -50.1%. In the case of CCOC(=O)c1cc(-c2ccccc2)n(-c2cccc(C(=O)Nc3cccc(SC)c3)c2)c1C, the activity change, negative = inhibition was inconclusive: 0%. In the case of CNc1cncc(-c2ccc(F)c(F)c2)n1, the activity change, negative = inhibition was inconclusive: -59.4%. For OCCNCCCCCOc1ccc(F)cc1, the activity change, negative = inhibition was inconclusive: -40.8%. For CN(C)CCNC(=O)c1cccc(-c2cnc3c(NC=O)cc(-c4ccc(S(C)(=O)=O)cc4)cn23)c1, the activity change, negative = inhibition was active: -65.8%. In the case of O=C(Cn1nnc(-c2ccncc2)n1)N(C1CCCCC1)C1CCCCC1, the activity change, negative = inhibition was inconclusive: -42.3%. In the case of Cc1ccc(Cl)cc1-c1ccc(C=Nc2ccc(N3CCOCC3)cc2)o1, the activity change, negative = inhibition was inconclusive: -53.2%. For Cn1ccc2c(-c3ccc4c(c3)OCCO4)cc3c(c21)C1CCC3C1 (stereo unspecified), the activity change, negative = inhibition was inconclusive: -51%. For O=C(Nc1cc([N+](=O)[O-])ccc1C(=O)Nc1cccnc1)c1ccccc1, the activity change, negative = inhibition was inconclusive: -55.4%. With CCOc1ccc(-c2nc(N)ncc2-c2ccc(Cl)cc2)c(O)c1 the activity change, negative = inhibition was inconclusive: -49.7%. For COc1ccc(C(=O)CN2CCN(c3cc(C)nc4ccccc34)CC2)cc1, the activity change, negative = inhibition was active: -61%.
